Experimental data reported in PubChem BioAssay AID1508600 (Functional Genomics Laboratory (NCATS/FGL), 2020).
Screen size: about 53,000 sequences; about 3,700 (7%) were called active.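 Rule for the calls: active = gene knockdowns whose robust z-score for IL-1 alpha signal is at least 2 or at most -2, so actives lie on both sides; inactive = the rest.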 The list shows a part of the results.

Experiment: Components of the Cytosolic LPS Sensing Pathway: Gene Identification via Genome-wide siRNA Screen;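 note: robust z of the log signal after scaling to non-targeting control siRNA wells of the plate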
Conditions: RAW264.7 macrophages, IL-1a HTRF, actives lie on both sides, screened at 100 nM (by protocol), cells primed 5 h with Pam3CSK4 first
Procedure, shortened: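 IL-1a HTRF of supernatants after 24 hour LipidA transfection of Pam3CSK4-primed (5 hours) RAW264.7 cells, 48h post-siRNA transfection (100 nM). Scores: percent of plate negative-control median, then log-based robust z-score.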
In the case of GGUCUUGUCGAUGUUCGCATT against Abhd6, the z-score was inactive: 1.78. With GGUUUUGUACUUUCAUAGATT against Fam111a the z-score was inactive: 0.523. With GGUGCAUGAAGAGUUAAAATT against Jade1 the z-score was inactive: 1.5. With CCAUGCUUCCCUUCAACAUTT against Adcy2 the z-score was active: 2.64. With GGAGAUCUUCAAGAAUUCATT against Entpd5 the z-score was inactive: 0.196. In the case of GGUUUCCAUAUUUGGAUCCTT against Dhx40, the z-score was inactive: 0.0331. With CCAAGUUCUAUCAACGAAGTT against Olfr175 the z-score was inactive: -1.12. For GCUAUCAUGCAAGAUGGCATT against Neurl4, the z-score was inactive: 0.00571. In the case of GGAGAUGGUUAUUUAAAGATT against Wbp2, the z-score was inactive: -0.427. With GGACAGAGAAAAAGUAUCATT against Eps8l1 the z-score was inactive: 0.51. For CCACUACAACAACACUUAUTT against Keg1, the z-score was inactive: 0.84. For CUCUGUCUUGAUUGUCAUUTT against Olfr1329, the z-score was inactive: 1.39. In the case of GGCUCUGUAUUAAAGAGUUTT against Ino80e, the z-score was inactive: 1.93. In the case of GGUGGAGAUGAUGGUUCAGTT against Tbxa2r, the z-score was inactive: -1.38. With GGAAGUGGUGCGCAAGAUGTT against Fam83g the z-score was inactive: -0.83. With CCAUGGAUAUUAUCUGUACTT against Olfr538 the z-score was inactive: -0.0186. With GCACUUAGUCCUACAUGACTT against Fut1 the z-score was inactive: -1.21. In the case of GGGUUACGGUUGUGGAUGUTT against Ugdh, the z-score was inactive: -0.936. For GGACUACCUGCUCUUGAAATT against Wdr93, the z-score was inactive: 0.554. For GGAGGCUGUGUUCUGAUGGTT against Mlycd, the z-score was inactive: 0.103. With GCCCUACUGUAUUGUUAGCTT against Lamb1 the z-score was inactive: -0.068. In the case of CCUAACAACCAGUUUAUGATT against Rasa1, the z-score was inactive: -0.985. In the case of GGUCAUGAGUCCACUGUUUTT against Ciao1, the z-score was inactive: -1.02. For GGGCAUAGAGUCUCAAACUTT against Ptger1, the z-score was inactive: -0.588. For GCGGUAUCAUCAGUGAACCTT against Cxxc5, the z-score was inactive: 1.22. For GGGAAAGUUUCUGCAUUCUTT against Lce1d, the z-score was active: 2.07. For GGCUUCAUUGACAAGAAUATT against Myo1g, the z-score was inactive: 0.649. With GGAACAAAAUACAUUCAAGTT against Vmn2r57 the z-score was inactive: 0.157. In the case of CCCUCUAUGCCAAAAGCUATT against Acer2, the z-score was inactive: -0.394. With GCAUAGGGUCAUUUCAAGCTT against Kif23 the z-score was inactive: 0.0957. For GGAGUAGAUGACAACACUATT against Defb19, the z-score was inactive: -0.401. In the case of GGGAAAUUCUGUUCUUUUGTT against Gng11, the z-score was inactive: 0.532. For GGAUUGGAUAUUGAGAAGGTT against Rexo2, the z-score was inactive: -1.72. For GGAGUCUCUGAAGAAAACATT against Hus1, the z-score was inactive: -0.596. For GGCACUCUCAGCUUUUGACTT against Olfr2, the z-score was active: -2.43. For GGUGUUAAACACUGAUUCUTT against Brs3, the z-score was inactive: 1.12. With GAGCGAGUUCGAUUGCUUCTT against Cited4 the z-score was inactive: -0.843. With GGGAAGAAGACAAAAACAUTT against Acbd6 the z-score was inactive: -1.03. For GCUUCGGAAUCGGUUACCATT against Alg2, the z-score was inactive: -1.28. For GUAUCCUUAUUUUUGCCCATT against Vmn1r53, the z-score was inactive: -1.27. In the case of GCUCUCCAUUACGUGCUUGTT against Rrp9, the z-score was inactive: 1.39. For GGAUUUUAUCUCCUUUCAATT against Tecta, the z-score was inactive: -0.174. In the case of GGAGCUUCUGACUAAUUAUTT against Rad54l2, the z-score was inactive: 0.431. For GGUCUGGAAUGGAGAACAGTT against Suox, the z-score was active: 2.73. In the case of GCGCGCAGUGAACGAAAAATT against Mycn, the z-score was inactive: 1.14. In the case of GGCAGCUCCUCAUGAUAUUTT against Nagk, the z-score was inactive: 0.435. In the case of GGUGACCAGGCUUAAAUCGTT against Bet1l, the z-score was inactive: -0.721. For CGAAGUGACAAUAAAUCAGTT against Snapc5, the z-score was inactive: -0.0661. For GGUACAACCUCGAAACUGGTT against Mpc1, the z-score was inactive: 0.173. With CCAUCGAAUGAAACUCAUGTT against Trim24 the z-score was inactive: 0.337. In the case of GGAUUCUAGGAGAGAAUCATT against Cplx3, the z-score was inactive: 0.897. With CGACCAUGUGACUUGUGUCTT against Lrp1b the z-score was inactive: 0.0598. In the case of GGGAAGAAGAGGAAGGAUUTT against Taf1a, the z-score was inactive: -1.62. With GCGUGGUACCUCAAGUCUATT against Map3k5 the z-score was inactive: 0.0421. In the case of GUUCCUGUUCCACUACUGCTT against Sts, the z-score was active: -2.32. With GGAGGAAAGAAUGUGUAAATT against Birc3 the z-score was inactive: 0.386. In the case of GGGAGAUCUUUAAGAGAAATT against Tfap2a, the z-score was inactive: 0.783. In the case of GGAAUUCCUUCGUUUCCUUTT against Usp2, the z-score was inactive: 1.64. For GGAUUAGCCUGGUCCUUUUTT against Dusp14, the z-score was inactive: 0.989. In the case of “GCACAUGACCAACAAUACCTT against 4932438A13Rik”, the z-score was inactive: -0.352. For GGAAGACUUUGAAUACCACTT against Slc4a2, the z-score was inactive: 0.457. For GGAUUUCUACUCUAAGCUGTT against Setdb1, the z-score was inactive: -0.219. With UUAUCCCGUGCAAAUGAAGTT against Akr1c19 the z-score was inactive: -0.427. For CCAUGUAUAUCUCAUAGCATT against Rnf26, the z-score was inactive: 0.646. For GGACCAGGAACAGUUCGAATT against Rela, the z-score was inactive: 0.121. With “GGCAAAGACCCAAGAAGUGTT against 1700029H14Rik” the z-score was inactive: 1.77. In the case of CGAACCCUAGCGGAAAUUGTT against Nono, the z-score was inactive: -1.54. For GGCUAAAGGAAACUCACCUTT against Duoxa2, the z-score was active: -3.33. With GGCACGUAUCAGUGUCAAGTT against Cd3g the z-score was inactive: 0.111. With GCUGGUUUCAUCCGCCAUATT against Dvl3 the z-score was inactive: 1.18. With GGUCACAUUUUGUGAUUUUTT against Tmem30b the z-score was inactive: 0.881. For CCAUAAGCACAUGAUUGAGTT against Prl7c1, the z-score was inactive: 0.0877. With GGUUUAGAAUGCAUAACAGTT against Dzank1 the z-score was inactive: -0.217. With GGAUUUGGAUUUGGAUUUUTT against Tsc22d3 the z-score was inactive: 0.387. In the case of GCCUGUUCGGGAAUCUUACTT against Olfr297, the z-score was active: 2.42. In the case of GGAACUUCCCUAUAGUGAATT against Hdac3, the z-score was inactive: -1.52. In the case of GGCAAGAAAAACACUUUAUTT against Parp3, the z-score was inactive: 1.85. For GGAGAAGAAGAUUUUCCAGTT against Irf2, the z-score was inactive: 0.651. For GGUGUUUAAAGAUUUCGUUTT against Dhrs2, the z-score was inactive: -0.215. With GGAAUAUGAAGAAGAAUUGTT against Adam7 the z-score was inactive: -0.0664. With GGAGUUGACCACACUGCUUTT against Smtn the z-score was inactive: -1.09. In the case of GCUGACUUGCACAUUCGAUTT against Mpzl1, the z-score was inactive: 1.08. For GGGAUACAGAUUUUGUUUATT against Olfr1261, the z-score was inactive: -0.116. In the case of GGCUGUUGUACUACACCAATT against Olfr629, the z-score was inactive: 0.0486. In the case of UCCAGAGGAUCCGCUGUGATT against Krt74, the z-score was inactive: -0.632. For CGUAGAGUUAAUUACACAATT against Gria4, the z-score was inactive: 1.84. With GCAACGAGCAAAAAGCAUGTT against Htr2a the z-score was inactive: -0.794. In the case of GGACCAUAAAUGAGACCCATT against Sulf2, the z-score was inactive: -1.89. In the case of GGGCAAGCAGUUCAUUCUGTT against Nr2c1, the z-score was inactive: 0.361. In the case of CCGGGAGCUACAAAAACUUTT against Ppp2r5d, the z-score was inactive: 1.83. For GGAGCUCAACAAAGACCUGTT against Yrdc, the z-score was inactive: -0.098. With GGAAUAUAGCGACAUCAUATT against Apba2 the z-score was inactive: -0.0671. With GGUUGAUCUAAAUGAAAUGTT against Idi1 the z-score was inactive: 0.402. With GGUUAUUUAUGCCCUCAAUTT against Fam184b the z-score was inactive: 1.58. With GCAAUUUCGUGUGAGAGACTT against Rp2 the z-score was inactive: -0.117. With GGCCCACAAGGCUGUUUUGTT against Zfp131 the z-score was inactive: 0.459. In the case of GGCCUACGAUAUUUCACAATT against Oosp1, the z-score was inactive: -0.969. For GGAAGAGAUUUCUAAACUUTT against Mcoln2, the z-score was inactive: -1.93. For GGAGAAAAACUGAGCAGCCTT against Chst12, the z-score was inactive: -1.72. In the case of GCUCUGCUGUAGACGUGAATT against Qrfprl, the z-score was inactive: 1.16. With CCAUUGAACAACUGUCCUATT against Zmynd8 the z-score was inactive: -0.558. With GCAACACAUUCCUUAUGAUTT against Entpd6 the z-score was inactive: -0.781. With GGAACAGCUGAACUGCUCATT against Lmbr1l the z-score was inactive: 0.0498. With CGACAUCUCCCUAGACAAGTT against Itm2c the z-score was inactive: 0.515. In the case of CCUUCCUUCGAAUUCGCUCTT against Dynlrb1, the z-score was inactive: 0.385. In the case of GGAGUACCUAUUUGUCAUCTT against Cnga2, the z-score was inactive: -0.29. For GGCACUGUUCGGCAAGAAGTT against Trappc5, the z-score was active: -2.1.
